These are yes or no findings as the source states them, for the method shown. In cells and extracts the contact can be indirect. Some entries that bind do so weakly or less than the wild type.
T1: FliF (Salmonella enterica serovar Typhimurium) (UniProt P15928)
T1 sequence: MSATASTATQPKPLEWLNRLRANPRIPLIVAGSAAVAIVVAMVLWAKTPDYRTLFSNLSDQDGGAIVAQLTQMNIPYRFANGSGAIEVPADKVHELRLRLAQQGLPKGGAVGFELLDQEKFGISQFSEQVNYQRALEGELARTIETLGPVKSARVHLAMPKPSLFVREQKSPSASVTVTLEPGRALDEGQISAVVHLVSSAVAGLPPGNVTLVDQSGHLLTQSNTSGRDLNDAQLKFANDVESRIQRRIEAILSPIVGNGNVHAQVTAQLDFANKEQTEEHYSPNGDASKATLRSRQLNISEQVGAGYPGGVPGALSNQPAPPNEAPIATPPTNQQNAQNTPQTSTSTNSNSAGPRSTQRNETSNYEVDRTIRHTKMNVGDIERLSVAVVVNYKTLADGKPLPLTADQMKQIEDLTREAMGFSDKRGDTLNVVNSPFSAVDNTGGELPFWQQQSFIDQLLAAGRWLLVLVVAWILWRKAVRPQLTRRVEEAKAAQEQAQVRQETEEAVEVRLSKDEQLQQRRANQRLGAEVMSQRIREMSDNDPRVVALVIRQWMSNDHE

B1: FliG (protein, UniProt P0A1J9 1-331)
chain: MSNLSGTDKSVILLMTIGEDRAAEVFKHLSTREVQALSTAMANVRQISNKQLTDVLSEFEQEAEQFAALNINANEYLRSVLVKALGEERASSLLEDILETRDTTSGIETLNFMEPQSAADLIRDEHPQIIATILVHLKRSQAADILALFDERLRHDVMLRIATFGGVQPAALAELTEVLNGLLDGQNLKRSKMGGVRTAAEIINLMKTQQEEAVITAVREFDGELAQKIIDEMFLFENLVDVDDRSIQRLLQEVDSESLLIALKGAEPPLREKFLRNMSQRAADILRDDLANRGPVRLSQVENEQKAILLIVRRLAETGEMVIGSGEDTYV
B2: FlhA (protein, UniProt P40729 1-692)
chain: MANLVAMLRLPSNLKSTQWQILAGPILILLILSMMVLPLPAFILDLLFTFNIALSIMVLLVAMFTQRTLDFAAFPTILLFTTLLRLALNVASTRIILMEGHTGAAAAGKVVEAFGHFLVGGNFAIGIVVFIILVIINFMVITKGAGRIAEVGARFVLDGMPGKQMAIDADLNAGLIGEDEAKKRRSEVTQEADFYGSMDGASKFVRGDAIAGILIMVINVVGGLLVGVLQHGMSIGSAAESYTLLTIGDGLVAQIPALVISTAAGVIVTRVSTDQDVGEQMVGQLFSNPRVMLLAAAVLGLLGMVPGMPNLVFLLFTAALLGLAWWLRGREEKAPEEPQPVKMPENNSVVEATWNDVQLEDSLGMEVGYRLIPMVDFQQDGELLGRIRSIRKKFAQDMGFLPPVVHIRDNMDLQPARYRILMKGVEIGSGDAYPGRWLAINPGTAAGTLPGEKTVDPAFGLDAIWIESALKEQAQIQGFTVVEASTVVATHLNHLIGQFSAELFGRQEAQQLLDRVSQEMPKLTEDLVPGVVTLTTLHKVLQNLLAEKVPIRDMRTILETLAEHAPLQSDPHELTAVVRVALGRAITQQWFPGNEEVQVIGLDTALERLLLQALQGGGGLEPGLADRLLAQTQEALSRQEMLGAPPVLLVNHALRPLLSRFLRRSLPQLVVLSNLELSDNRHIRMTATIGGK

Target: T1, FliF (Salmonella enterica serovar Typhimurium)
Test: co-sedimentation

Row | Binder | binding
1 | B1 | binds
2 | B2 | binds
